Experimental findings from doi:10.1101/2023.12.21.570062 are described below.

Sequences of proteins named here, by UniProt entry; tags and fusion partners are left off.
UniProt A1ZAW0: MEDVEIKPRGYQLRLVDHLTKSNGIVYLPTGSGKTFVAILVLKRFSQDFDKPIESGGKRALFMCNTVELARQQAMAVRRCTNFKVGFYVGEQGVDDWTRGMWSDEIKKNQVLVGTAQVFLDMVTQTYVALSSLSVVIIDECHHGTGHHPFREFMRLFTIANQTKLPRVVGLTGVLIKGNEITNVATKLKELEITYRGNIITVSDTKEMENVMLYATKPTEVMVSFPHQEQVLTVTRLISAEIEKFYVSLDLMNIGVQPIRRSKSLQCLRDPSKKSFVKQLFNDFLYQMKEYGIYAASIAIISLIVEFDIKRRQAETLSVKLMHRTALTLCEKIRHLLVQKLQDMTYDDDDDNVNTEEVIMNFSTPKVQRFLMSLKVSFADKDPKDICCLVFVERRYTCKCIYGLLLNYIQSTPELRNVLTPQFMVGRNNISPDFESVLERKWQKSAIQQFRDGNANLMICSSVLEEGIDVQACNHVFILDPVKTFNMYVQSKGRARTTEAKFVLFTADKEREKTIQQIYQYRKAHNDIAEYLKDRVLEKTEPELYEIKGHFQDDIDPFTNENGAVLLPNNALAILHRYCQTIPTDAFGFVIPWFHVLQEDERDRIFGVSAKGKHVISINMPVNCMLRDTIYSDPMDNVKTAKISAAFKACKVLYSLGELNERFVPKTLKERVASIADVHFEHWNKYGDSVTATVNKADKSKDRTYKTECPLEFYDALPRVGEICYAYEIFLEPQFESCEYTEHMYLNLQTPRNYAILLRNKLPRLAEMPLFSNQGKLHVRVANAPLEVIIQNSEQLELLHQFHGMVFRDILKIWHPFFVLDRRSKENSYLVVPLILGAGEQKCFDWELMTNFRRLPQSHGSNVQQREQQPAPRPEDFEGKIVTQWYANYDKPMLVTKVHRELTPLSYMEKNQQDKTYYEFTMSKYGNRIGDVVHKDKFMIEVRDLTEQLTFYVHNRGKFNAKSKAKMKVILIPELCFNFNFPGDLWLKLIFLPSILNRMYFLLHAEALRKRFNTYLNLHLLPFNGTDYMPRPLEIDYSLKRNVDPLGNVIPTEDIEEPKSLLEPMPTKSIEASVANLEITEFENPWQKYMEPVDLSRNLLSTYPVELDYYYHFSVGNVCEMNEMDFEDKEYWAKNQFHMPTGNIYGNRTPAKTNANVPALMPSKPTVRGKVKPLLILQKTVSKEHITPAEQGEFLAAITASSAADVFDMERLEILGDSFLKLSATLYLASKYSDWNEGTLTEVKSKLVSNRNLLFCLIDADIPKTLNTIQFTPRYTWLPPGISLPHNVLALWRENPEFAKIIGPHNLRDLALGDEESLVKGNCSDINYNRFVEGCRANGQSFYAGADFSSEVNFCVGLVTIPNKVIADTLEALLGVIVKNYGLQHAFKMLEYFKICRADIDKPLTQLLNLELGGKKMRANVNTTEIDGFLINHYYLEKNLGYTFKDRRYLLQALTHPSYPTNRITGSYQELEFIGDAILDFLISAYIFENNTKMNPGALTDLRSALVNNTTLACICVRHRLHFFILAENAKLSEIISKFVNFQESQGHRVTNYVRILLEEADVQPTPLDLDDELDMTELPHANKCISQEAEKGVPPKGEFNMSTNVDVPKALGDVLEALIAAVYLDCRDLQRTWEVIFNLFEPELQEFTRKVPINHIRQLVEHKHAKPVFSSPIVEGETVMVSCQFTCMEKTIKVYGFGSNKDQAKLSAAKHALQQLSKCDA
UniProt Q9I7T7: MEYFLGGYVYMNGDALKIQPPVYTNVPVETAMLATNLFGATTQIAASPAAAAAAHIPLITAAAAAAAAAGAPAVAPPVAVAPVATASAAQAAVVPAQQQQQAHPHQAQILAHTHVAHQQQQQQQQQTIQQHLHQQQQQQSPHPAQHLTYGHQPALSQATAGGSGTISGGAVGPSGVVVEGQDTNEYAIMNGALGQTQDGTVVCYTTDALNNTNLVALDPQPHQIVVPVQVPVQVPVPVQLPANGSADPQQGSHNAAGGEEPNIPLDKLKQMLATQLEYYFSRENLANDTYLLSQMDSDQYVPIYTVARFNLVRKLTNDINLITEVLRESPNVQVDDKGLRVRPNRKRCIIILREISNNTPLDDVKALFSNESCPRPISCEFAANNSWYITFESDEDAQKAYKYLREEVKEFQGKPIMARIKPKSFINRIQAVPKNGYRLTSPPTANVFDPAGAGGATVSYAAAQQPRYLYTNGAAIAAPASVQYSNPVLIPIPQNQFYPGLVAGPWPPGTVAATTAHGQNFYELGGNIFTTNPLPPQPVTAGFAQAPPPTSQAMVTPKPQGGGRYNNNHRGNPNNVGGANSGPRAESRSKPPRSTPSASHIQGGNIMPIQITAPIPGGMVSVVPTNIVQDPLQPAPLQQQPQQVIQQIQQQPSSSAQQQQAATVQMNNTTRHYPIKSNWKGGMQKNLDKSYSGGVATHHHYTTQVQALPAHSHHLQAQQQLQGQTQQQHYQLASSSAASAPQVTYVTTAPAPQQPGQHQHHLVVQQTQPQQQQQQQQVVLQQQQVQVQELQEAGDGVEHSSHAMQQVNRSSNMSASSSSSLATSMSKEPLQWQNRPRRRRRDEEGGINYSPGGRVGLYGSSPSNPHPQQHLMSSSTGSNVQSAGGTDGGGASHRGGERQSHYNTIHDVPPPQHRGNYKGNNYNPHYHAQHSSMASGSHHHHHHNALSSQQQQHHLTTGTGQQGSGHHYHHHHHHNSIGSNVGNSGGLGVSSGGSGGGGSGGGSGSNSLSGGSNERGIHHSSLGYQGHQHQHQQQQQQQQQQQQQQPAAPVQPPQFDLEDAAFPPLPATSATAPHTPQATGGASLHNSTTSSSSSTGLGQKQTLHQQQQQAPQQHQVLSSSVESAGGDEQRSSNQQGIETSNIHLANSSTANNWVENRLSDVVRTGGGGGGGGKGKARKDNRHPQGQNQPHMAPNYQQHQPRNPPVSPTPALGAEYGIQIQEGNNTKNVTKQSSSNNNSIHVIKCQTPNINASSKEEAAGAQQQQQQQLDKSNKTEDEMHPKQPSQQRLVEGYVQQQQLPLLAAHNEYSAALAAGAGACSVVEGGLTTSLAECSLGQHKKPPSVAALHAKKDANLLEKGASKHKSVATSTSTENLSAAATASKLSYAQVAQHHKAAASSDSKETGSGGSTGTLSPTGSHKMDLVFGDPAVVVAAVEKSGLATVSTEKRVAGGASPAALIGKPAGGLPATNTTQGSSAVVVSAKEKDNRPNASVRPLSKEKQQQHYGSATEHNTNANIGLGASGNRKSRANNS
UniProt P11147: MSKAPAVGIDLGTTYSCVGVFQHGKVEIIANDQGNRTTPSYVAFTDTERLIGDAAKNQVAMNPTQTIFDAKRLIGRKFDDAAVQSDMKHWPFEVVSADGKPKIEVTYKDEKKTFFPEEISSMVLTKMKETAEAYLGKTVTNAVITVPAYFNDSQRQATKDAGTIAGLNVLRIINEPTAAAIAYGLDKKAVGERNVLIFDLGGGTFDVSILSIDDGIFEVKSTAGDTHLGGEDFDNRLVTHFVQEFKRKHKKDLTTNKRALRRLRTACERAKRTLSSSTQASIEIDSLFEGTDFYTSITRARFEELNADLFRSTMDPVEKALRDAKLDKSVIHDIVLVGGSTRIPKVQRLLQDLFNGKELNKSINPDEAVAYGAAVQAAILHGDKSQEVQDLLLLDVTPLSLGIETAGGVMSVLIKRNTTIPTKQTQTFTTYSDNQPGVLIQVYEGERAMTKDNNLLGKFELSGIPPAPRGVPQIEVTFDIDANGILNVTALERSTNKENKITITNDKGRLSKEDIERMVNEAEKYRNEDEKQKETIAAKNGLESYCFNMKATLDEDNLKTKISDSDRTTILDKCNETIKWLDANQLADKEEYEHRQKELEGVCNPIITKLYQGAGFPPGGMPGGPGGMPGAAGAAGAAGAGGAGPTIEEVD

What all share (test): affinity purification with mass spectrometry
For assay [1], the target named is GFP::Dicer-2^WT (Drosophila melanogaster) (UniProt A1ZAW0).
For assay [2] the target is unchanged. This is another data set of the same source.
Assay [3] shares this target. This is another data set of the same source.

Where two headings read alike, the source gives them in different places. No constants are given. Whether binding was seen depends on the method and setting. In cells and extracts the contact can be indirect. Here binding means that the protein was enriched with, or labelled near, the bait; the list need not be complete.

In the case of Larp4B (from UniProt Q9I7T7 1-1531), the binding result in assay [1] is listed as “binds”.
The same measure, in the same setting: the value for Hsc70-4 (from UniProt P11147 1-651) was “binds”.

B1: Arc1 (protein, UniProt Q7K1U0 1-254)
chain: MAQLTQMTNEQLRELIEAVRAAAVGAAGSAAAAGGADASRGKGNFSACTHSFGGTRDHDVVEEFIGNIETYKDVEGISDENALKGISLLFYGMASTWWQGVRKEATTWKEAIALIREHFSPTKPAYQIYMEFFQNKQDDHDPIDTFVIQKRALLAQLPSGRHDEETELDLLFGLLNIKYRKHISRHSVHTFKDLLEQGRIIEHNNQEDEEQLATAKNTRGSKRTTRCTYCSFRGHTFDNCRKRQKDRQEEQHEE
Turning to B1, the binding entry in assay [2] is recorded as “binds”.

B2: R2D2 (protein, UniProt Q9VLW8 1-311)
chain: MDNKSAVSALQEFCARTQINLPTYSFIPGEDGGYVCKVELLEIEALGNGRSKRDAKHLAASNILRKIQLLPGIHGLMKDSTVGDLDEELTNLNRDMVKELRDYCVRREMPLPCIEVVQQSGTPSAPEFVACCSVASIVRYGKSDKKKDARQRAAIEMLALISSNSDNLRPDQMQVASTSKLKVVDMEESMEELEALRRKKFTTYWELKEAGSVDHTGMRLCDRHNYFKNFYPTLKKEAIEAINSDEYESSKDKAMDVMSSLKITPKISEVESSSLVPLLSVELNCAFDVVLMAKETDIYDHIIDYFRTMLI
Turning to B2, the binding entry in assay [2] and in assay [3] was “binds” each time.
